According to patent publication US20260294915A1, “COMBINATION THERAPY COMPRISING A MAT2A INHIBITOR AND A TOPOISOMERASE INHIBITOR, A SPLICING INHIBITOR SULFONAMIDE, OR A KIF18 INHIBITOR” (IDEAYA BIOSCIENCES, INC., priority 2023, published 2026):
The name of at least one read-out is uncertain. Marks after values point to notes of the source that are not given here.

Experiments:
Assay in all cases: 10-day proliferation screen with Compound A pre-treatment (Example 3)
Format in all cases: cell-based
[1] = system: HuP-T4; settings: Growth IC50 DMSO vs Cmpd A 150 nM
Experimental: (§1) A 10-day proliferation screen was performed in 15 pancreatic, non-small cell lung, and bladder cancer cell lines: 10 MTAP null and 5 MTAP wild-type. Optimal cell seeding for all cell lines was determined by assessing the growth over a range of seeding densities in a 384-well format to identify conditions that permitted proliferation for 10 days. Cells were then plated at the optimal seeding density in the presence of 20-150 nM of Compound A or DMSO vehicle control. Cells were incubated at 37° C. with 5% CO2 for 4 days to allow for target engagement of the pre-treatment compound. Maintaining the pre-treatment condition, cells were also treated with an 11-point, three-fold titration series of compounds from a chemically diverse library of 424 compounds. The combination compound concentrations ranged from 0.2 nM to 14,679 nM. A plate of cells was harvested at the time of combination compound addition to quantify the number of cells at the start of the combination (T0). For cell quantification, the harvested cells were lysed with CellTiter-Glo (CTG) (Promega) reagent according to the manufacturer's protocol and the chemiluminescent signal was detected on a Synergy Neo plate reader (ThermoFisher, serial #140715A). CTG estimates cell number through detection of cellular ATP levels. Cells were incubated with the drug combinations at 37° C. with 5% CO2 for an additional 6 days for a total of a 10-day assay including the pre-treatment. Cells were then lysed with CTG and the chemiluminescent signal was measured. CTG values obtained after the 10-day treatment were background subtracted, expressed as a percent of the T0 value, and plotted against compound concentration. Data were fit with a four-parameter equation to generate concentration response curves. Growth IC50 values and maximal growth inhibition were compared between the DMSO and the Compound A pre-treated cells for each combination titration. Combination hit calling was based on the observation of >2-fold shift in growth IC50 and/or greater than 20% decrease in growth inhibition.

[2] = system: J82; settings: Growth IC50 DMSO vs Cmpd A 150 nM
Experimental: as §1

[3] = system: NCI-H2170; settings: Growth IC50 DMSO vs Cmpd A 80 nM
Experimental: as §1

[4] = system: NCI-H2228; settings: Growth IC50 DMSO vs Cmpd A 80 nM
Experimental: as §1

[5] = system: NCI-H520; settings: Growth IC50 DMSO vs Cmpd A 80 nM
Experimental: as §1

[6] = system: NCI-H838
Experimental: as §1

[7] = system: OE33; settings: Growth IC50 DMSO vs Cmpd A 150 nM
Experimental: as §1

[8] = system: RT112/84; settings: Growth IC50 DMSO vs Cmpd A 150 nM
Experimental: as §1

[9] = system: SW900; settings: Growth IC50 DMSO vs Cmpd A 80 nM
Experimental: as §1

[10] = system: TCCSUP; settings: Growth IC50 DMSO vs Cmpd A 150 nM
Experimental: as §1

[11] = system: UMUC11; settings: Growth IC50 DMSO vs Cmpd A 150 nM
Experimental: as §1

[12] = system: UMUC5; settings: Growth IC50 DMSO vs Cmpd A 150 nM
Experimental: as §1

[13] = system: SKGT4; settings: Growth IC50 DMSO vs Cmpd A 150 nM
[14] = system: Panc 03.27 MTAP Knock-out Clone 31; settings: Growth IC50 DMSO vs Cmpd A 15 nM
Experimental: as §1, with “Cells were then plated at the optimal seeding density in the presence of 20-150 nM of Compound A or DMSO vehicle control.” left out, “CTG estimates cell number through detection of cellular ATP levels. Cells were incubated with the drug combinations at 37° C. with 5% CO2 for an additional 6 days for a total of a 10-day assay including the pre-treatment.” left out, “Data were fit with a four-parameter equation to generate concentration response curves. Growth IC50 values and maximal growth inhibition were compared between the DMSO and the Compound A pre-treated cells for each combination titration. Combination hit calling was based on the observation of >2-fold shift in growth IC50 and/or greater than 20% decrease in growth inhibition.” left out

[15] = system: Panc 03.27 Parent; settings: Growth IC50 DMSO vs Cmpd A 15 nM
Experimental: as §1, with “Cells were then plated at the optimal seeding density in the presence of 20-150 nM of Compound A or DMSO vehicle control.” left out, “CTG estimates cell number through detection of cellular ATP levels. Cells were incubated with the drug combinations at 37° C. with 5% CO2 for an additional 6 days for a total of a 10-day assay including the pre-treatment.” left out, “Data were fit with a four-parameter equation to generate concentration response curves. Growth IC50 values and maximal growth inhibition were compared between the DMSO and the Compound A pre-treated cells for each combination titration. Combination hit calling was based on the observation of >2-fold shift in growth IC50 and/or greater than 20% decrease in growth inhibition.” left out

With `NS(=O)(=O)c1ccc(S(=O)(=O)Nc2cccc3c(Cl)c[nH]c23)cc1` [Indisulam, N-(3-chloro-1H-indol-7-yl)benzene-1,4-disulfonamide] the “Fold Change” value [1] was 2.0*, the “Fold Change” value [2] was 1.8 and the “Fold Change” value [3] was 1.3. The “Fold Change” value [4] was 0.9, the “Fold Change” value [5] was 0.9 and the “Fold Change” value ([6]; Growth IC50 DMSO vs Cmpd A 20 nM) was 2.0*. For the same compound, the “Fold Change” value ([6]; Growth IC50 DMSO vs Cmpd A 150 nM) was 2.4*, the “Fold Change” value [7] was 2.2* and the “Fold Change” value [8] was 4.0*. The “Fold Change” value [9] was 2.1*, the “Fold Change” value [10] was 1.4 and the “Fold Change” value [11] was 0.7. The “Fold Change” value [12] was 2.3*, the “Fold Change” value [13] was 2.1* and the “Fold Change” value [14] was 2.5*. The “Fold Change” value [15] was 1.3.
